{"source": "paper PMC7862700", "note": "This is a selection; strong and weak results do not stand in their true shares. For part of these data: At the low end of the ranking the order means little. Some of the results follow. For part of these data: Construct or isoform of the protein are uncertain."}
{"biological_target": "T1, GABPA (UniProt Q06546)", "T1 sequence": "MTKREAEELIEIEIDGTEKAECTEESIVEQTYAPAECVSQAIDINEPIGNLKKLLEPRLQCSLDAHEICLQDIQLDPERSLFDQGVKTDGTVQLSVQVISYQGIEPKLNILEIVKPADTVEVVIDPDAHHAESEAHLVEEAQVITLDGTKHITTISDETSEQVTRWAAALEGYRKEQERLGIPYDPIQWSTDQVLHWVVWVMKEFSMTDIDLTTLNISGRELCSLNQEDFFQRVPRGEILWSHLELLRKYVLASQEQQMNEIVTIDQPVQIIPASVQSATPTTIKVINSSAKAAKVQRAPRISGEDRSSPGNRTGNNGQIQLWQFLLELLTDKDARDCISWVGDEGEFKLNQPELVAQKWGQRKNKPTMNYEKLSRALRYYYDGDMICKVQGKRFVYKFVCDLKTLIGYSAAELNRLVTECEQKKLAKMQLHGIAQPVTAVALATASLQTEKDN", "test": "DAPPL (digital affinity profiling via proximity ligation, sequencing)", "settings": "10 mM Tris-HCl pH 7.5, 50 mM NaCl, 1 mM DTT, 4% glycerol, room temperature, 30 min; GST-TFs on glutathione beads, 16-mer random dsDNA library, 0.1% …; high values mean tight binding; double strand, one strand shown; scale: fold enrichment (6-mer frequency, TF over GST control)"}
{"sequence": "AGGTGG", "binding signal": 0.604}
{"sequence": "AATCGG", "binding signal": 0.543}
{"sequence": "CCATCG", "binding signal": 0.849}
{"sequence": "GGGTAC", "binding signal": 0.848}
{"sequence": "TGAGTG", "binding signal": 0.518}
{"sequence": "CAGCAA", "binding signal": 0.987}
{"sequence": "GGGCGA", "binding signal": 0.761}
{"sequence": "GGGTCA", "binding signal": 0.619}
{"sequence": "GAGACA", "binding signal": 0.37}
{"sequence": "GCCCAG", "binding signal": 0.718}
{"sequence": "AGTCGA", "binding signal": 0.432}
{"sequence": "CAGGGC", "binding signal": 0.815}
{"sequence": "AGTCCA", "binding signal": 0.716}
{"sequence": "GAAGGA", "binding signal": 0.729}
{"sequence": "CCAGCG", "binding signal": 0.608}
{"sequence": "CCAGAG", "binding signal": 0.671}
{"sequence": "ATCGGA", "binding signal": 0.395}
{"sequence": "GTAGGA", "binding signal": 0.576}
{"sequence": "CAGGCA", "binding signal": 0.792}
{"sequence": "TGGAGA", "binding signal": 0.436}
{"sequence": "GAAGGC", "binding signal": 0.896}
{"sequence": "GGACGA", "binding signal": 0.65}
{"sequence": "TGACGT", "binding signal": 0.943}
{"sequence": "GAAGAC", "binding signal": 0.853}
{"sequence": "ACCGAG", "binding signal": 0.77}
{"sequence": "CAGTAG", "binding signal": 0.627}
{"sequence": "AGTTAG", "binding signal": 0.8}
{"sequence": "CAGTTG", "binding signal": 0.499}
{"sequence": "GGCAGG", "binding signal": 0.615}
{"sequence": "ACCAGT", "binding signal": 0.467}
{"sequence": "TGTCGA", "binding signal": 0.831}
{"sequence": "TAGCCG", "binding signal": 0.891}
{"sequence": "TCGGTA", "binding signal": 0.599}
{"sequence": "GAGTCA", "binding signal": 0.287}
{"sequence": "GGGTGA", "binding signal": 0.644}
{"sequence": "GCAGTC", "binding signal": 0.455}
{"sequence": "CAGAGC", "binding signal": 0.871}
{"sequence": "GAGACT", "binding signal": 0.357}
{"sequence": "TCAGAA", "binding signal": 0.984}
{"biological_target": "T2, ETS1 (UniProt P14921)", "T2 sequence": "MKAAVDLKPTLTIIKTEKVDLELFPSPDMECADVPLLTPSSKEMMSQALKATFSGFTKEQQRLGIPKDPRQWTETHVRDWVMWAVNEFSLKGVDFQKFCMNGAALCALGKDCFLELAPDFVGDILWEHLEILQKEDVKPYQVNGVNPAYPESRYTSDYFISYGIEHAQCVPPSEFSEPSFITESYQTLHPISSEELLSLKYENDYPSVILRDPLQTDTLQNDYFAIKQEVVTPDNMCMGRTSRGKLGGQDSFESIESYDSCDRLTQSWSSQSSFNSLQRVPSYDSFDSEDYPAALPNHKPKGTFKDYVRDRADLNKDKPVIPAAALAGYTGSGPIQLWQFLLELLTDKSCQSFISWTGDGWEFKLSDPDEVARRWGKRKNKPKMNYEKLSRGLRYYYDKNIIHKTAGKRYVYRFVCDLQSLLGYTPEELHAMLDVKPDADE", "test": "DAPPL (digital affinity profiling via proximity ligation, sequencing)", "settings": "10 mM Tris-HCl pH 7.5, 50 mM NaCl, 1 mM DTT, 4% glycerol, room temperature, 30 min; GST-TFs on glutathione beads, 16-mer random dsDNA library, 0.1% …; high values mean tight binding; double strand, one strand shown; scale: fold enrichment (6-mer frequency, TF over GST control)"}
{"sequence": "AGGTGG", "binding signal": 0.583}
{"sequence": "AATCGG", "binding signal": 0.545}
{"sequence": "CCATCG", "binding signal": 0.842}
{"sequence": "GGGTAC", "binding signal": 0.968}
{"sequence": "TGAGTG", "binding signal": 0.417}
{"sequence": "CAGCAA", "binding signal": 0.93}
{"sequence": "GGGCGA", "binding signal": 0.74}
{"sequence": "GGGTCA", "binding signal": 0.723}
{"sequence": "GAGACA", "binding signal": 0.362}
{"sequence": "GCCCAG", "binding signal": 0.819}
{"sequence": "AGTCGA", "binding signal": 0.336}
{"sequence": "CAGGGC", "binding signal": 0.762}
{"sequence": "AGTCCA", "binding signal": 0.696}
{"sequence": "GAAGGA", "binding signal": 0.687}
{"sequence": "CCAGCG", "binding signal": 0.622}
{"sequence": "CCAGAG", "binding signal": 0.69}
{"sequence": "ATCGGA", "binding signal": 0.422}
{"sequence": "GTAGGA", "binding signal": 0.587}
{"sequence": "CAGGCA", "binding signal": 0.757}
{"sequence": "TGGAGA", "binding signal": 0.414}
{"sequence": "GAAGGC", "binding signal": 0.78}
{"sequence": "GGACGA", "binding signal": 0.695}
{"sequence": "TGACGT", "binding signal": 0.899}
{"sequence": "GAAGAC", "binding signal": 0.832}
{"sequence": "ACCGAG", "binding signal": 0.777}
{"sequence": "CAGTAG", "binding signal": 0.585}
{"sequence": "AGTTAG", "binding signal": 0.862}
{"sequence": "CAGTTG", "binding signal": 0.449}
{"sequence": "GGCAGG", "binding signal": 0.596}
{"sequence": "ACCAGT", "binding signal": 0.459}
{"sequence": "TGTCGA", "binding signal": 0.835}
{"sequence": "TAGCCG", "binding signal": 0.945}
{"sequence": "TCGGTA", "binding signal": 0.569}
{"sequence": "GAGTCA", "binding signal": 0.28}
{"sequence": "GGGTGA", "binding signal": 0.676}
{"sequence": "GCAGTC", "binding signal": 0.442}
{"sequence": "CAGAGC", "binding signal": 0.84}
{"sequence": "GAGACT", "binding signal": 0.422}
{"sequence": "TCAGAA", "binding signal": 0.931}
{"biological_target": "T3, SPDEF (UniProt O95238)", "T3 sequence": "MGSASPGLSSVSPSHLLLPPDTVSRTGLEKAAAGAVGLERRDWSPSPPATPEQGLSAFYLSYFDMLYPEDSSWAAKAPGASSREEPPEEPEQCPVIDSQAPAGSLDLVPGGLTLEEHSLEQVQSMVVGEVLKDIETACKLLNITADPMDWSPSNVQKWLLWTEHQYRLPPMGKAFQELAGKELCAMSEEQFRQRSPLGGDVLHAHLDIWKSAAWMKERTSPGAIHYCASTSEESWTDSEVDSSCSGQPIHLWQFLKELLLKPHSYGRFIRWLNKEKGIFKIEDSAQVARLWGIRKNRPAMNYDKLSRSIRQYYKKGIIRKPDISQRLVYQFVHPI", "test": "DAPPL (digital affinity profiling via proximity ligation, sequencing)", "settings": "10 mM Tris-HCl pH 7.5, 50 mM NaCl, 1 mM DTT, 4% glycerol, room temperature, 30 min; GST-TFs on glutathione beads, 16-mer random dsDNA library, 0.1% …; high values mean tight binding; double strand, one strand shown; scale: fold enrichment (6-mer frequency, TF over GST control)"}
{"sequence": "AGGTGG", "binding signal": 0.577}
{"sequence": "AATCGG", "binding signal": 0.522}
{"sequence": "CCATCG", "binding signal": 0.772}
{"sequence": "GGGTAC", "binding signal": 0.963}
{"sequence": "TGAGTG", "binding signal": 0.451}
{"sequence": "CAGCAA", "binding signal": 0.873}
{"sequence": "GGGCGA", "binding signal": 0.797}
{"sequence": "GGGTCA", "binding signal": 0.723}
{"sequence": "GAGACA", "binding signal": 0.338}
{"sequence": "GCCCAG", "binding signal": 0.671}
{"sequence": "AGTCGA", "binding signal": 0.396}
{"sequence": "CAGGGC", "binding signal": 0.764}
{"sequence": "AGTCCA", "binding signal": 0.65}
{"sequence": "GAAGGA", "binding signal": 0.688}
{"sequence": "CCAGCG", "binding signal": 0.657}
{"sequence": "CCAGAG", "binding signal": 0.616}
{"sequence": "ATCGGA", "binding signal": 0.435}
{"sequence": "GTAGGA", "binding signal": 0.567}
{"sequence": "CAGGCA", "binding signal": 0.736}
{"sequence": "TGGAGA", "binding signal": 0.392}
{"sequence": "GAAGGC", "binding signal": 0.842}
{"sequence": "GGACGA", "binding signal": 0.652}
{"sequence": "TGACGT", "binding signal": 0.894}
{"sequence": "GAAGAC", "binding signal": 0.757}
{"sequence": "ACCGAG", "binding signal": 0.758}
{"sequence": "CAGTAG", "binding signal": 0.608}
{"sequence": "AGTTAG", "binding signal": 0.777}
{"sequence": "CAGTTG", "binding signal": 0.488}
{"sequence": "GGCAGG", "binding signal": 0.615}
{"sequence": "ACCAGT", "binding signal": 0.454}
{"sequence": "TGTCGA", "binding signal": 0.93}
{"sequence": "TAGCCG", "binding signal": 0.934}
{"sequence": "TCGGTA", "binding signal": 0.562}
{"sequence": "GAGTCA", "binding signal": 0.28}
{"sequence": "GGGTGA", "binding signal": 0.635}
{"sequence": "GCAGTC", "binding signal": 0.427}
{"sequence": "CAGAGC", "binding signal": 0.836}
{"sequence": "GAGACT", "binding signal": 0.37}
{"sequence": "TCAGAA", "binding signal": 0.919}
